According to publication PMC4222488, “Lipid droplet binding thalidomide analogs activate endoplasmic reticulum stress and suppress hepatocellular carcinoma in a chemically induced transgenic mouse model” (Lipids in Health and Disease, 2013):

Tested on: HepG2
Assay: Intracellular localization by fluorescent confocal microscopy with ER-Tracker Green
Assay type: cell-based, human
Details: HepG2 live cells, inherent blue fluorescence

`CC(C)c1cccc(C(C)C)c1N1C(=O)c2c(F)c(F)c(F)c(NC(=O)NC(=O)CCl)c2C1=O` [Ac-2010] was tested, and the Subcellular localization was “ER-specific localization”.

With `CC(C)c1cccc(C(C)C)c1N1C(=O)c2c(F)c(F)c(F)c(N[C@@H]3C=CS(=O)(=O)C3)c2C1=O` [Ac-915, 2-[2,6-bis(propane-2-yl)phenyl]-4-{[(3R)-1,1-dioxo-2,3-dihydro-thiophene-3-yl]amino}-5,6,7-trifluoro-2,3-dihydro-1H-isoindole-1,3-dione] the Subcellular localization was “ER-specific localization”.
